Counter-ions that a name gives are not always drawn. Like-named read-outs stand apart in the source and are kept apart here. About 60 (2%) of roughly 3,300 compounds showed an effect of 50% or more. The list shows a part of the results. Bridge positions count the residues as written; N and C are the ends. Square brackets hold non-standard residues; d marks the D form. Peptide text beside a SMILES is read from it. * marks the point of attachment. Ileψ(thiazoline)Cys = CC[C@H](C)[C@H](N)C1=N[C@H](C(=O)*)CS1; dOrn = NCCC[C@@H](N)C(=O)O
Test system: HCoV-OC43
Parameters: species or system RD; HTS, protection from HCoV-OC43 induced cell death, luminescent cell viability (CellCounting-Lite 2.0), inhibition rate
Details: 24 h post infection, 1 h compound pre-incubation, 10 µM, inhibitor

| SMILES | OC43 Inhibition rate | OC43 Inhibition rate (OC43 Inhibition rate, 24 h) |
| --- | --- | --- |
| CCCCCCO [1-Hexanol] | 2.6% |  |
| C/C(=C\CNc1ncnc2nc[nH]c12)CO [trans-Zeatin] | -2.8% |  |
| NC(=O)CCC(N)C(=O)O (racemic) [DL-Glutamine] | 3.4% |  |
| CC(=O)c1ccccc1O [2'-Hydroxyacetophenone] | 0.1% |  |
| Nc1ncnc2c1ncn2[C@H]1C[C@H](O)[C@@H](CO)O1 [2'-Deoxyadenosine] |  | -0.2% |
| COc1ccc(-c2cc(=O)c3c(O)c(OC)c(O)c(OC)c3o2)cc1 [Nevadensin] | 0.8% |  |
| COC(=O)[C@]1(C)CC[C@]2(C(=O)O[C@@H]3O[C@H](CO)[C@@H](O)[C@H](O)[C@H]3O)CC[C@]3(C)C(=CC[C@@H]4[C@@]5(C)C[C@H](O)[C@H](O[C@@H]6OC[C@@H](O[C@@H]7O[C@H](CO)[C@@H](O)[C@H](O)[C@H]7O)[C@H](O)[C@H]6O)[C@@](C)(CO)C5CC[C@]43C)[C@H]2C1 (stereo partly drawn) [Esculentoside H] | 0% |  |
| C[C@H]1CC[C@@]2(OC1)O[C@H]1C[C@H]3[C@@H]4CC=C5C[C@@H](O[C@@H]6O[C@H](CO)[C@@H](O)[C@H](O[C@@H]7OC[C@@H](O)[C@H](O)[C@H]7O)[C@H]6O[C@@H]6O[C@@H](C)[C@H](O)[C@@H](O)[C@H]6O)CC[C@]5(C)[C@H]4CC[C@]3(C)[C@H]1[C@@H]2C [Liriope muscari baily saponins C] | 66.1% |  |
| COc1cc(O[C@@H]2O[C@H](CO)[C@@H](O)[C@H](O)[C@H]2O)c2c(O)c(C(C)=O)c(C)cc2c1 [Torachrysone-8-O-b-D-glucoside] | 0.6% |  |
| COc1cc([C@@H]2c3cc4c(cc3[C@H](O)[C@H]3COC(=O)[C@@H]23)OCO4)cc(OC)c1OC [Picropodophyllin] | 5.9% |  |
| O=c1cc(-c2ccccc2)oc2c(O)c(O)cc(O)c12 [Norwogonin] | -0.3% |  |
| CC(C)=CCC/C(C)=C/Cc1c(O)ccc(C(=O)/C=C/c2ccc(O)cc2)c1O [Xanthoangelol] | 4.7% |  |
| CC(C)=CCC[C@](C)(O)[C@H]1CC[C@]2(C)[C@@H]1[C@H](O)C[C@@H]1[C@@]3(C)CC[C@H](O)C(C)(C)[C@@H]3CC[C@]12C [(20S)-Protopanaxadiol] | 33% |  |
| Nc1ncnc2c1ncn2[C@@H]1O[C@H](COP(=O)(O)OP(=O)(O)OP(=O)(O)O)[C@@H](O)[C@H]1O [ATP (disodium salt hydrate)] |  | -0.2% |
| CC[C@H]1CN2CC[C@]3(C(=O)Nc4ccccc43)[C@@H]2C[C@@H]1/C(=C\OC)C(=O)OC [Rhynchophylline] | 2.9% |  |
| O=C(O)CCCC(=O)O [Glutaric acid] | -0.5% |  |
| C[C@]12C[C@@H](O)[C@@H]3C[C@@]1(O[C@@H]1O[C@H](CO)[C@@H](O)[C@H](O)[C@H]1O)[C@]3(COC(=O)c1ccccc1)C(=O)O2 [Albiflorin] | -0.4% |  |
| C1=C2CCCN[C@H]2[C@@H]2C[C@H]1[C@H]1CCCCN1C2 [Aloperine] | 26.4% |  |
| NC(=O)[C@@H](N)Cc1c[nH]c2ccccc12 [H-Trp-NH2.HCl] | 0.1% |  |

Part of the list above, with tabs:
SMILES	OC43 Inhibition rate	OC43 Inhibition rate (OC43 Inhibition rate, 24 h)
NC(=O)CCC(N)C(=O)O (racemic) [DL-Glutamine]	3.4%	
CC(=O)c1ccccc1O [2'-Hydroxyacetophenone]	0.1%	
Nc1ncnc2c1ncn2[C@H]1C[C@H](O)[C@@H](CO)O1 [2'-Deoxyadenosine]		-0.2%

Next entries follow.

| SMILES | OC43 Inhibition rate | OC43 Inhibition rate (OC43 Inhibition rate, 24 h) |
| --- | --- | --- |
| COc1ccc(-c2coc3c([C@@H]4O[C@H](CO)[C@@H](O)[C@H](O)[C@H]4O)c(O)ccc3c2=O)cc1 [4'-Methoxypuerarin] | 2.5% |  |
| O=c1cc(CO)occ1O [Kojic acid] | -0.2% |  |
| C=CCSC[C@H](N)C(=O)O [S-Allyl-L-cysteine] | 5% |  |
| COc1cc(CNC(=O)CCCCCCCC(C)C)ccc1O [Homodihydrocapsaicin I] | 6.8% |  |
| CC(CC(=O)CC(C)(O)[C@H]1CC(=O)[C@@]2(C)C3=C(C(=O)C[C@]12C)[C@@]1(C)CCC(=O)C(C)(C)[C@@H]1C[C@@H]3O)C(=O)O (stereo partly drawn) [Ganoderic acid N] | 0.7% |  |
| C=C1CCOC1=O [Tulipalin A] | 28.2% |  |
| COc1ccc(-c2cc(=S)ss2)cc1 [Anethole trithione] | 24.4% |  |
| COc1cc(C2Oc3ccc([C@H]4Oc5cc(O)cc(O)c5C(=O)[C@@H]4O)cc3OC2CO)ccc1O (stereo partly drawn) [Isosilybin] | 1.2% |  |
| CC(=O)O[C@@H]1CC[C@@]2(C)[C@@H](CC[C@]3(C)[C@@H]2CC=C2[C@@H]4[C@@H](C)[C@H](C)CC[C@]4(C)CC[C@]23C)[C@@]1(C)C(=O)O [3-Acetyl-beta-boswellic acid] | 66.7% |  |
| C/C=C(\C)C(=O)OC1c2c(ccc3ccc(=O)oc23)OC(C)(C)C1OC(=O)/C(C)=C/C (stereo not drawn) [Praeruptorin B] | 7.3% |  |
| C=CCSSSCC=C [Diallyl Trisulfide] | -3.7% |  |
| CC(=O)Nc1ccn([C@@H]2O[C@H](COP(=O)(O)OP(=O)(O)OP(=O)(O)O)[C@@H](O)[C@H]2O)c(=O)n1 [N4-Acetylcytidine triphosphate (sodium)] | 0.7% |  |
| COc1cc(CCC(O)CCCCc2ccccc2)ccc1O (stereo not drawn) [Oxyphyllacinol] | 0.5% |  |
| Cn1c(=O)[nH]c2ncn(C)c2c1=O [Paraxanthine] | -0.1% |  |
| COc1cc2c(cc1OC)-c1cc3ccc(OC)c(OC)c3c[n+]1CC2 [Palmatine (hydroxide)] |  | -1.7% |
| C[C@H]1[C@H](C)CC[C@]2(C(=O)O[C@@H]3O[C@H](CO[C@@H]4O[C@H](CO)[C@@H](O[C@@H]5O[C@@H](C)[C@H](O)[C@@H](O)[C@H]5O)[C@H](O)[C@H]4O)[C@@H](O)[C@H](O)[C@H]3O)CC[C@]3(C)C(=CC[C@@H]4[C@@]5(C)C[C@@H](O)[C@H](O)[C@@](C)(CO)[C@@H]5[C@H](O)C[C@]43C)[C@H]12 [Madecassoside] | -1% |  |
| O[C@H]1CCN2Cc3ccccc3N=C12 [Vasicine (hydrochloride)] | -2.2% |  |
| C[C@@H](CO[C@@H]1O[C@H](CO)[C@@H](O)[C@H](O)[C@H]1O)[C@@H]1CC[C@@]2(CC[C@]3(C)[C@H](CC[C@@H]4[C@@]5(C)CC[C@H](O[C@@H]6O[C@H](CO)[C@@H](O)[C@H](O)[C@H]6O[C@@H]6OC[C@@H](O)[C@H](O)[C@H]6O)[C@@](C)(CO[C@@H]6O[C@H](CO)[C@@H](O)[C@H](O)[C@H]6O)[C@@H]5CC[C@]43C)[C@H]2O)CO1 [Hosenkoside M] | 3.5% |  |
| NC(CCSSCCC(N)C(=O)O)C(=O)O (stereo not drawn) [4,4'-Disulfanediylbis(2-aminobutanoic acid)] | -0.3% |  |

| SMILES | OC43 Inhibition rate | OC43 Inhibition rate (OC43 Inhibition rate, 24 h) |
| --- | --- | --- |
| OC[C@H]1O[C@H](O[C@H]2O[C@H](CO)[C@@H](O)[C@H](O)[C@H]2O)[C@H](O)[C@@H](O)[C@@H]1O [D-(+)-Trehalose] |  | 2.4% |
| C[C@H]1[C@H](C)CC[C@]2(CO)CC[C@]3(C)C(=CC[C@@H]4[C@@]5(C)CC[C@H](O)C(C)(C)[C@@H]5CC[C@]43C)[C@H]12 [Uvaol] | -0.1% |  |
| CC(C)(CO)[C@@H](O)C(=O)NCCC(=O)O [D-Pantothenic acid] |  | 1.1% |
| C[N+](C)(C)CCO [L-Uridine] | -1.6% |  |
| O=C(c1ccc(O)cc1)c1c(O)cc(O)c([C@@H]2O[C@H](CO)[C@@H](O)[C@H](O)[C@H]2O)c1O [Iriflophenone 3-C-glucoside] | -0.4% |  |
| CC(=O)OC[C@H](N)C(=O)O [O-Acetylserine] | -0.4% |  |
| Oc1cc(O)c2c(c1)O[C@H](c1cc(O)c(O)c(O)c1)[C@H](O)C2 [(-)-Epigallocatechin] | -0.4% |  |
| O=C(/C=C/c1ccc(O[C@@H]2O[C@H](CO)[C@@H](O)[C@H](O)[C@H]2O[C@@H]2OC[C@](O)(CO)[C@H]2O)cc1)c1ccc(O)cc1O [Isoliquiritin apioside] | -0.9% |  |
| O=C1CC(c2ccc(O)cc2)Oc2cc(O)cc(O)c21 (racemic) [(±)-Naringenin] | 1.1% |  |
| COc1cc(/C=C/C(=O)OC(C)C)ccc1O [Isopropyl ferulate] | 0.7% |  |
| CC(C)CCCCCCCCCCCC(=O)O [13-Methyltetradecanoic acid] | -0.6% |  |
| Nc1ncnc2c1ncn2[C@@H]1O[C@H](COP(=O)(O)O)[C@@H](O)[C@H]1O [Adenosine monophosphate] |  | 0% |
| O=c1ccc2ccc(O[C@@H]3O[C@H](CO)[C@@H](O)[C@H](O)[C@H]3O)cc2o1 [Skimmin] | -0.4% |  |
| c1ccc(CSSCc2ccccc2)cc1 [Dibenzyl disulfide] | 0% |  |
| CC(S)C(=O)NCC(=O)O (stereo not drawn) [Tiopronin] | -0.6% |  |
| Cc1c[nH]c2ccccc12 [Skatole] | 2% |  |
| O=C(c1ccccc1)C(O)c1ccccc1 (stereo not drawn) [Benzoin] | -0.1% |  |
| CC(C)=CCC[C@](C)(O)[C@H]1CC[C@]2(C)[C@@H]1[C@H](O)C[C@@H]1[C@@]3(C)C[C@@H](O)[C@H](O[C@@H]4O[C@H](CO)[C@@H](O)[C@H](O)[C@H]4O[C@@H]4O[C@H](CO)[C@@H](O)[C@H](O)[C@H]4O)C(C)(C)[C@@H]3CC[C@]12C [Gypenoside L] | -0.2% |  |
| CC[C@H](C)[C@H](N)C1=N[C@H](C(=O)N[C@@H](CC(C)C)C(=O)N[C@H](CCC(=O)O)C(=O)N[C@H](C(=O)N[C@H]2CCCCNC(=O)[C@H](CC(N)=O)NC(=O)[C@@H](CC(=O)O)NC(=O)[C@H](Cc3cnc[nH]3)NC(=O)[C@@H](Cc3ccccc3)NC(=O)[C@H]([C@@H](C)CC)NC(=O)[C@@H](CCCN)NC2=O)[C@@H](C)CC)CS1 [Bacitracin] ({Ileψ(thiazoline)Cys}-L[dE]IK[dOrn]I[dF]H[dD]N; lactam 4-C) | -0.3% |  |

2 consecutive entries already listed, for reference:

| SMILES | OC43 Inhibition rate | OC43 Inhibition rate (OC43 Inhibition rate, 24 h) |
| --- | --- | --- |
| NC(=O)[C@@H](N)Cc1c[nH]c2ccccc12 [H-Trp-NH2.HCl] | 0.1% |  |
| COc1ccc(-c2coc3c([C@@H]4O[C@H](CO)[C@@H](O)[C@H](O)[C@H]4O)c(O)ccc3c2=O)cc1 [4'-Methoxypuerarin] | 2.5% |  |
